PubChem BioAssay AID652243 | Drosophila RNAi Screening Center – 2013
The screen tested about 24,000 reagents; below is an unselected part of those that have a named target and a result. In the full data, 246 (1%) are marked active. 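Plates not normalised; calls are printed but the firefly/Renilla ratio behind them is not deposited; fold cut for lowering reported inconsistently.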 Raw values are not corrected between plates. Names joined by + are all predicted targets of the reagent. Not given: the amount of reagent.

Assay: 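Knock-downs that decrease or increase androgen receptor reporter signal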 (primary screen)
Cell system: Drosophila S2R+ cells
Knock-down reagent: long dsRNA against Drosophila genes
Time to read-out: 72 h (48 h, then 24 h hormone)
Treatment: synthetic androgen R1881 at 10 nM for 24 h
Measured: 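Per-well raw luminescence of the androgen-driven firefly reporter and of the Renilla control, two replicates each, without normalisation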
Direction: firefly reporter light: higher = more light from androgen-responsive reporter; Renilla control light: higher = more constitutive control signal (cell number, transfection)
Rule for the call: 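Hit when the log firefly-to-Renilla ratio dropped or increased by a fixed fold versus the mean of GFP or LacZ controls across duplicate plates; lowering cut given as 1.5 and as 3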
Meaning of the calls: active = hit: reporter lowered or raised; inactive = no hit

| Target gene | DRSC id | firefly reporter light, replicate 1 | firefly reporter light, replicate 2 | Renilla control light, replicate 1 | Renilla control light, replicate 2 | call |
| --- | --- | --- | --- | --- | --- | --- |
| CG33639 | DRSC19966 | 3.61e5 | 3.76e5 | 2.76e6 | 2.81e6 | inactive |
| CG33639 | DRSC22820 | 4.49e5 | 8.82e5 | 9.38e5 | 1.55e6 | inactive |
| CG33639 | DRSC23778 | 8.38e5 | 9.07e5 | 9.69e5 | 8.38e5 | inactive |
| CG5326 | DRSC13568 | 53133 | 83950 | 73383 | 1.27e5 | inactive |
| CG5326 | DRSC15770 | 1.35e5 | 1.07e5 | 8.40e5 | 8.54e5 | inactive |
| CG5326 | DRSC23719 | 3.20e5 | 2.92e5 | 3.60e5 | 3.65e5 | inactive |
| drpr | DRSC08143 | 92665 | 89705 | 9.08e5 | 9.09e5 | inactive |
| drpr | DRSC08525 | 71161 | 71577 | 9.21e5 | 1.09e6 | inactive |
| CG31897 | DRSC01020 | 1.82e5 | 2.58e5 | 4.43e5 | 4.72e5 | inactive |
| CG9706 | DRSC11095 | 36304 | 35399 | 3.61e5 | 4.00e5 | inactive |
| ClpX | DRSC15592 | 88022 | 51867 | 4.22e5 | 4.65e5 | inactive |
| ewg | DRSC18773 | 6.54e5 | 9.11e5 | 2.30e6 | 2.13e6 | inactive |
| ewg | DRSC26141 | 2.88e5 | 2.25e5 | 8.58e5 | 6.20e5 | inactive |
| CG17327 | DRSC15225 | 2.21e5 | 2.14e5 | 2.56e6 | 2.27e6 | inactive |

A run of entries of the results above, for reference:
| Target gene | DRSC id | firefly reporter light, replicate 1 | firefly reporter light, replicate 2 | Renilla control light, replicate 1 | Renilla control light, replicate 2 | call |
| --- | --- | --- | --- | --- | --- | --- |
| drpr | DRSC08525 | 71161 | 71577 | 9.21e5 | 1.09e6 | inactive |
| CG31897 | DRSC01020 | 1.82e5 | 2.58e5 | 4.43e5 | 4.72e5 | inactive |
| CG9706 | DRSC11095 | 36304 | 35399 | 3.61e5 | 4.00e5 | inactive |
| ClpX | DRSC15592 | 88022 | 51867 | 4.22e5 | 4.65e5 | inactive |

The listing continues:
| Target gene | DRSC id | firefly reporter light, replicate 1 | firefly reporter light, replicate 2 | Renilla control light, replicate 1 | Renilla control light, replicate 2 | call |
| --- | --- | --- | --- | --- | --- | --- |
| mRpS18A | DRSC14369 | 59665 | 92648 | 1.82e6 | 1.93e6 | inactive |
| dlg1 | DRSC18896 | 1.27e6 | 5.11e5 | 1.88e6 | 5.62e5 | inactive |
| dlg1 | DRSC19767 | 1.57e5 | 1.52e5 | 3.19e6 | 3.02e6 | active |
| dlg1 | DRSC20324 | 74464 | 94104 | 7.16e5 | 6.79e5 | inactive |
| dlg1 | DRSC29546 | 4.85e5 | 4.51e5 | 8.17e5 | 8.17e5 | inactive |
| dlg1 | DRSC36997 | – | – | – | – | inactive |
| CG2162 | DRSC08557 | 7.03e5 | 9.12e5 | 1.23e6 | 9.81e5 | inactive |
| CG2162 | DRSC25030 | 7.64e5 | 7.55e5 | 8.90e5 | 8.86e5 | inactive |
| CG13044 | DRSC09925 | 2.62e5 | 2.43e5 | 2.84e6 | 1.90e6 | inactive |
| CG13044 | DRSC28609 | 3.69e5 | 4.64e5 | 1.65e6 | 1.77e6 | inactive |
| CG8778 | DRSC07264 | 2.22e5 | 1.75e5 | 1.60e6 | 1.42e6 | inactive |
| Grl65a | DRSC08837 | 2.63e5 | 1.10e5 | 5.60e5 | 3.77e5 | inactive |
| Grl65a | DRSC25986 | 5.17e5 | 5.50e5 | 8.82e5 | 8.64e5 | inactive |
| CG4563 | DRSC04474 | 2.72e5 | 2.57e5 | 1.73e6 | 1.49e6 | inactive |
| tj | DRSC02011 | 65536 | 83751 | 9.78e5 | 1.01e6 | inactive |
| tj | DRSC28417 | 2.10e5 | 4.57e5 | 4.11e5 | 8.29e5 | inactive |
| r | DRSC19813 | 5.29e5 | 3.92e5 | 4.35e6 | 2.84e6 | inactive |
| r | DRSC19814 | 4.25e5 | 5.37e5 | 2.63e6 | 2.93e6 | inactive |
| r | DRSC39150 | 9.55e5 | 1.07e6 | 1.66e6 | 1.66e6 | inactive |
| usp | DRSC18847 | 1.06e5 | 2.25e5 | 2.98e6 | 4.18e6 | inactive |
| usp | DRSC24447 | 98617 | 1.33e5 | 3.30e5 | 1.78e5 | inactive |
| Inx3 | DRSC14857 | 74457 | 72508 | 1.12e6 | 7.43e5 | inactive |
| Inx3 | DRSC24037 | 4.91e5 | 3.95e5 | 5.80e5 | 5.55e5 | inactive |
| Lcp65Ag3 + Lcp65Ag2 + Lcp65Ag1 | DRSC11214 | 1.90e5 | 2.38e5 | 2.50e6 | 2.79e6 | inactive |
| Lcp65Ag3 + Lcp65Ag2 + Lcp65Ag1 | DRSC11215 | 2.27e5 | 2.85e5 | 2.61e6 | 3.90e6 | inactive |
| CG2006 | DRSC15412 | 8.72e5 | 9.95e5 | 1.24e6 | 1.39e6 | inactive |
